Experimental data as given in paper PMC7093472.
Results are given in words; binding and its absence hold for the method and conditions named. In cells and extracts the contact can be indirect. Some entries that bind do so weakly or less than the wild type.

Sequences of proteins named here, by UniProt entry; tags and fusion partners are left off.
UniProt Q96EB6: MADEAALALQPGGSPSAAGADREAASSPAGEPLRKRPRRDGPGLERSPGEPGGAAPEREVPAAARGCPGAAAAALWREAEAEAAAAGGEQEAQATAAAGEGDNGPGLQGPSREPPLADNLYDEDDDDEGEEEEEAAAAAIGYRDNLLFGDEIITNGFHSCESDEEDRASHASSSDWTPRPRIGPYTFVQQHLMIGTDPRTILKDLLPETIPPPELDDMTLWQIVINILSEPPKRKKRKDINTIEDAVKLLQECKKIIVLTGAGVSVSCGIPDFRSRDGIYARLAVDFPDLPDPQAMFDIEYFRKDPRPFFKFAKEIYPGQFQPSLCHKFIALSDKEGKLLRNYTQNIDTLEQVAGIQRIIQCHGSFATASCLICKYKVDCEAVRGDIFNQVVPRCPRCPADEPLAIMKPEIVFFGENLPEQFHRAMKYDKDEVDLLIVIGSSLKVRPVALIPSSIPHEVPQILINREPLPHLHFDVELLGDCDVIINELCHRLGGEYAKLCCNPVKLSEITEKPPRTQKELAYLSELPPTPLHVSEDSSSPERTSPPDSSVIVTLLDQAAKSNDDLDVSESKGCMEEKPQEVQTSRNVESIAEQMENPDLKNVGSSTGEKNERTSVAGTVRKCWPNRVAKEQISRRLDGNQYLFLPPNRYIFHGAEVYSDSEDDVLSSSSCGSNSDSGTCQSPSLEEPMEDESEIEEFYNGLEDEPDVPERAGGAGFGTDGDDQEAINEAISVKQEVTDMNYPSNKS
UniProt P03372: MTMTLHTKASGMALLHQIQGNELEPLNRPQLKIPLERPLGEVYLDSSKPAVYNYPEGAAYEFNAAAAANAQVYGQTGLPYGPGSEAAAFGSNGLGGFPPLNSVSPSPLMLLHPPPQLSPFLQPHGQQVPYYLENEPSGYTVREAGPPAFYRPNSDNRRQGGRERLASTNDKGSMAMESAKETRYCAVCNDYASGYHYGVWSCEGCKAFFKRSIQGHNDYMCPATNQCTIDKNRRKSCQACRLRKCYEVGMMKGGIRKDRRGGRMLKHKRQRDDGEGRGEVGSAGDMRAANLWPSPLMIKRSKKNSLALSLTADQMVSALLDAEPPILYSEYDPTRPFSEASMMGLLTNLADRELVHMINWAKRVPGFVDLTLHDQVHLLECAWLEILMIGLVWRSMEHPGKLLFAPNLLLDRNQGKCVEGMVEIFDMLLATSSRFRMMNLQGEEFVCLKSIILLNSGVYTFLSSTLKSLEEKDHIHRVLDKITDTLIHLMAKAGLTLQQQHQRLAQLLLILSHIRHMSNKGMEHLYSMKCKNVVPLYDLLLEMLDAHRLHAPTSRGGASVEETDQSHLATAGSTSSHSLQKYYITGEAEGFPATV
UniProt Q92731: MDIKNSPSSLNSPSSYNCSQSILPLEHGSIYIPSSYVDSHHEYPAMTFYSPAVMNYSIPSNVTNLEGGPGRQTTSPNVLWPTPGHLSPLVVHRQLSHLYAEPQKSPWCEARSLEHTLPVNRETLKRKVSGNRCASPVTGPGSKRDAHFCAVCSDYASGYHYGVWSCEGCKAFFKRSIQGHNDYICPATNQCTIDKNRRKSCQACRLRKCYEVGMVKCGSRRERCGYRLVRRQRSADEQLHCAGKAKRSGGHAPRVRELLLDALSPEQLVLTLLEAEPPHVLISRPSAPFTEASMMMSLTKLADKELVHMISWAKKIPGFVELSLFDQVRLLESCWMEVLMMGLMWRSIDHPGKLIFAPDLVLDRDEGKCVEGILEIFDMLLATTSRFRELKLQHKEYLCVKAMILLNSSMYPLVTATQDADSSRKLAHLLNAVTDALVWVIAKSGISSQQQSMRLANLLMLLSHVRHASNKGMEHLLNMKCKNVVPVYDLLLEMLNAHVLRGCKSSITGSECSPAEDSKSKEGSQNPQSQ

How the values were obtained:
[1] = target: GST-SIRT1 (silent information regulator 2 homologue 1) (human) (UniProt Q96EB6); assay: pull-down; GST-SIRT1 immobilized on glutathione sepharose beads, 35S-labelled in vitro translated ERα or ERβ in solution; 20 mM HEPES pH 7.5, 150 mM NaCl, 0.1 mM EDTA, 10% glycerol, 0.05% NP-40; 2 h at 4 °C; with 0.1% DMSO, 1 µM E2, 100 µM of the dSTACs or various concentrations of resveratrol; fluorography; only the target purified
[2] = target: GST-SIRT1 (silent information regulator 2 homologue 1) (human) (UniProt Q96EB6); assay: pull-down; as a1, with 100 µM resveratrol (highest dose of the series in Figure 4); only the target purified

Row | Substance | binding [1] | binding [2]
1 | oestrogen receptor alpha (ERα), in vitro translated (from UniProt P03372 1-595) | binds | binds weakly
2 | oestrogen receptor beta (ERβ), in vitro translated (from UniProt Q92731 1-530) | binds weakly | –
